# For some assays here: Listed are the inconclusive results; actives and inactives stand elsewhere. For some assays here: Potencies of inconclusive entries are doubtful fits and often do not repeat. For some assays here: This list was built around the results that the source calls inconclusive (neither active nor inactive); the mix of calls is not that of the screen. Active and inactive are the calls of the source. Rule for the calls: active = hit-call score of the fitted dose curve at least 0.9, where 1 is the maximum; inconclusive = response in the unintended direction; inactive = score below 0.9.
# Amino acid sequences for entries named in this document (tags omitted). A change or cut given only in a name is not applied to a line headed by its entry.
# UniProt P10275: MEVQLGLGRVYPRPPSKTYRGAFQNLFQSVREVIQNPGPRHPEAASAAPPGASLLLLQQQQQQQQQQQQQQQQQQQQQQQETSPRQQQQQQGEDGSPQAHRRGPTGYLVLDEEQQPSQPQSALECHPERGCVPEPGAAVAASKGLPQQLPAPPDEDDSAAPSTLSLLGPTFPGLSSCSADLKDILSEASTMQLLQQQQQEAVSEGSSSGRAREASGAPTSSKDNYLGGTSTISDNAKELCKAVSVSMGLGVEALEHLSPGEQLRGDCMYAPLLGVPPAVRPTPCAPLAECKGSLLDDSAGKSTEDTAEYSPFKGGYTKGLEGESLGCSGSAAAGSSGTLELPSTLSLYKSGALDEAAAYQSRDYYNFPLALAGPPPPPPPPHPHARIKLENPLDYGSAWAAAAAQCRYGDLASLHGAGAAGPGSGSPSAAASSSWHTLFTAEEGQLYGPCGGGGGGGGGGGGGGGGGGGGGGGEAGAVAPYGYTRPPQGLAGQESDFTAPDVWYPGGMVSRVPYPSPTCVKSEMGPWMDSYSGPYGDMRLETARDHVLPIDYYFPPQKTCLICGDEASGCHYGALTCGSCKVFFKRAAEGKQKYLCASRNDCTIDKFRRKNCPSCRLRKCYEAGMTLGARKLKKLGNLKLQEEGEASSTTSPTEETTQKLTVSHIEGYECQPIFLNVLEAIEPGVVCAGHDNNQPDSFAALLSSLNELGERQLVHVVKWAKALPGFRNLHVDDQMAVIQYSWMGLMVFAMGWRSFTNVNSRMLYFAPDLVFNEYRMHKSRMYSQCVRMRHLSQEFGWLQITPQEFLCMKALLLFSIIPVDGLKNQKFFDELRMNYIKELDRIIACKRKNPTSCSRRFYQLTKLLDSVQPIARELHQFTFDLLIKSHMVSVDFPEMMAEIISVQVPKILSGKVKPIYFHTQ
# UniProt P08683: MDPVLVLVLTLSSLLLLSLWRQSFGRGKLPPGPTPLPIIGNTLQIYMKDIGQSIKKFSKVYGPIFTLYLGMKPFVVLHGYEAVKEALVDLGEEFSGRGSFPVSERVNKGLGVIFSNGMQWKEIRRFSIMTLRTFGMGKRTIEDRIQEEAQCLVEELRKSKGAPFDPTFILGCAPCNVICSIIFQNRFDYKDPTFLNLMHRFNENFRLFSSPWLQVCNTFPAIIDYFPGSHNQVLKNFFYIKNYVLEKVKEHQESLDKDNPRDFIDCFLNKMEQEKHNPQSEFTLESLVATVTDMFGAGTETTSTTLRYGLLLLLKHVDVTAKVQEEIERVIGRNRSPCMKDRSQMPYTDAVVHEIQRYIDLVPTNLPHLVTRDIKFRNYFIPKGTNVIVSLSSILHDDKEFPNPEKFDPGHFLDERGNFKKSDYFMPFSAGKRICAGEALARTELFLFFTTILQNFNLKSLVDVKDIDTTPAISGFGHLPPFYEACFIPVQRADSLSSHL
# UniProt P08254: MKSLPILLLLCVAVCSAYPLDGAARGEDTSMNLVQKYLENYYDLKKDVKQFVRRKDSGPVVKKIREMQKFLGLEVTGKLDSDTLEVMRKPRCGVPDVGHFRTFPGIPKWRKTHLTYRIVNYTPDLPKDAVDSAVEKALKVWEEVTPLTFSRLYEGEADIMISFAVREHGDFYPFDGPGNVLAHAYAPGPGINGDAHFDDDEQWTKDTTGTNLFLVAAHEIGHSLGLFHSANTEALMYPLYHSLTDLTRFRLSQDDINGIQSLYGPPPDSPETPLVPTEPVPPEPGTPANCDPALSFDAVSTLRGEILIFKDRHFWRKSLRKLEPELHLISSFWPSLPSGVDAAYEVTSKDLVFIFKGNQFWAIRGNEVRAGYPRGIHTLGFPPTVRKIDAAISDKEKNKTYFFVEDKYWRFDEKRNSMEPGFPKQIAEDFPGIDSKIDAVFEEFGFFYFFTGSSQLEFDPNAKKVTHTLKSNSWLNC
# UniProt P34969, whole entry, looked up: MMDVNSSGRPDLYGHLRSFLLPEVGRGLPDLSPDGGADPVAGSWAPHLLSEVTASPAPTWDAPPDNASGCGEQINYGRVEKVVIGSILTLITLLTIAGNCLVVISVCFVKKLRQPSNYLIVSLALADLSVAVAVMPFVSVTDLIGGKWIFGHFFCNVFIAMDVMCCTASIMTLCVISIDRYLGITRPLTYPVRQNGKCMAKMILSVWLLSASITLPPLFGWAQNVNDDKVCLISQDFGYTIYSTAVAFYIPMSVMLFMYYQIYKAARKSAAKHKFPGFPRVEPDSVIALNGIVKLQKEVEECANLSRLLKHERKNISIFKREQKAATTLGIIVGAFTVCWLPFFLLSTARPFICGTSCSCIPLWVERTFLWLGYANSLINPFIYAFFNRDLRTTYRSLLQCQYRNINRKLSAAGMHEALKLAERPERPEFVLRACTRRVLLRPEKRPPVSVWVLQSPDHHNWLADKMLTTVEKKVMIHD
# UniProt Q15722: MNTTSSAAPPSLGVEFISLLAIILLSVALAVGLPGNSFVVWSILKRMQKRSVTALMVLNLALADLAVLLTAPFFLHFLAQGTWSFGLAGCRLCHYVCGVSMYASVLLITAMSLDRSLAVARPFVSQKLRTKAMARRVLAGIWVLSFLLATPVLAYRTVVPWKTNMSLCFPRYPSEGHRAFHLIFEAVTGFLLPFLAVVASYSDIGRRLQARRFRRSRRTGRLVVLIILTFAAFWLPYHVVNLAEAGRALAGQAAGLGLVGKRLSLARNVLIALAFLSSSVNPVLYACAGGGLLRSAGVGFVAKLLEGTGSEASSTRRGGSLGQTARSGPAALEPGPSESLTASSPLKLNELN
# UniProt P23385: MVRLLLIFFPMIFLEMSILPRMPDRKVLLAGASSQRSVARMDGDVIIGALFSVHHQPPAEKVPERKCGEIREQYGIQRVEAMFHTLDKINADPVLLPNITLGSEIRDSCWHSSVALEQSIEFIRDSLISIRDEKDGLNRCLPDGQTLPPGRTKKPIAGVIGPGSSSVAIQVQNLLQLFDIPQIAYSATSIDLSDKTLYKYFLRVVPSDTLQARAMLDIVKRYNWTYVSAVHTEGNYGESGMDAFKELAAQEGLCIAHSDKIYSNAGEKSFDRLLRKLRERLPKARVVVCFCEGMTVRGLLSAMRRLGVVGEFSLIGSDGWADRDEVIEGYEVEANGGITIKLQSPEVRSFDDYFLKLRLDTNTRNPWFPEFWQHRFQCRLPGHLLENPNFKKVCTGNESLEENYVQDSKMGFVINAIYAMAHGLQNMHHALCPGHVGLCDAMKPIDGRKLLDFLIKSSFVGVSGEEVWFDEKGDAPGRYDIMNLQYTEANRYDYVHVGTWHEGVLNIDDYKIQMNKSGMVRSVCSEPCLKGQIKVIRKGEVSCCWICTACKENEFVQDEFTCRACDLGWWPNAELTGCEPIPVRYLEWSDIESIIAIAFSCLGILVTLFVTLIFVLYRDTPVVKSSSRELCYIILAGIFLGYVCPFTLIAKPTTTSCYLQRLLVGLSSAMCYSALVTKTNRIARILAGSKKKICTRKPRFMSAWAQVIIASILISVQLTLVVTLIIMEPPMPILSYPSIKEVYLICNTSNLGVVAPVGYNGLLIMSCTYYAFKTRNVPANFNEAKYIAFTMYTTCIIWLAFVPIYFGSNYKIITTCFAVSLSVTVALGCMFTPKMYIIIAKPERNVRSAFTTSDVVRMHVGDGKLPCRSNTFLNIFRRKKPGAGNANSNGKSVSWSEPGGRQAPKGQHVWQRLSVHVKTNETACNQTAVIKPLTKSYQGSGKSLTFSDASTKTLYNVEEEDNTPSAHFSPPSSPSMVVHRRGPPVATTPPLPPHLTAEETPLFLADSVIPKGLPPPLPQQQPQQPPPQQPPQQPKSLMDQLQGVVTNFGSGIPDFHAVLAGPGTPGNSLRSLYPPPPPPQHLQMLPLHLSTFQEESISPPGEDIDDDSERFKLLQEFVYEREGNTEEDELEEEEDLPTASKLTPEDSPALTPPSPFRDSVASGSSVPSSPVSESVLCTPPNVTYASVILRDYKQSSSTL
# UniProt P10828: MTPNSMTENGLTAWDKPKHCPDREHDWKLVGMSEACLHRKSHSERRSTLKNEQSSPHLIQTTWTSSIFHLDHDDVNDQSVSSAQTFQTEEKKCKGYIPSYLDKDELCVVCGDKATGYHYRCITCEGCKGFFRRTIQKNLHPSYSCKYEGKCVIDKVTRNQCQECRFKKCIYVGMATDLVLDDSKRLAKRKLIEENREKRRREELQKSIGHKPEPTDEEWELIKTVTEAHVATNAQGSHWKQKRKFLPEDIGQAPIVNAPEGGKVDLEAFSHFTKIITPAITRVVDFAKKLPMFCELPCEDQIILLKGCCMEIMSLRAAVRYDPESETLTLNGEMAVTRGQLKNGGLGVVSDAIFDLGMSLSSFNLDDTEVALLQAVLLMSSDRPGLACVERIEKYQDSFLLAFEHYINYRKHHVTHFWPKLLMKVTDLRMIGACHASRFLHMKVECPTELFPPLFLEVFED
# UniProt P03956: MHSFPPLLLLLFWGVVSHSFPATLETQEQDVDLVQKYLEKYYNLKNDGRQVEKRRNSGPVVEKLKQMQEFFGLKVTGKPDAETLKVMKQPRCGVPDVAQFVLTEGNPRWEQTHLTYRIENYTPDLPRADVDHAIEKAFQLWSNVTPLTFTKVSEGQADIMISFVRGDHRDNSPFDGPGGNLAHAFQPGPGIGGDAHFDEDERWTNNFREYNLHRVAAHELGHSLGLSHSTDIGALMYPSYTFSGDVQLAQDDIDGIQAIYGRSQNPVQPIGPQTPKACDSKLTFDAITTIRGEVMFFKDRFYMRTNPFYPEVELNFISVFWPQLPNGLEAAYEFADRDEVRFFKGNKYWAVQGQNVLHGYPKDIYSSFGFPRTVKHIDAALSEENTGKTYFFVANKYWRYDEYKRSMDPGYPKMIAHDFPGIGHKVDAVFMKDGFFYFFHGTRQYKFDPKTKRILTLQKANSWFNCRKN
# What was measured:
# [1] = target: Androgen Receptor/SRC-1 Co-activator, AR (gene 367) (UniProt P10275); test: OT_AR_ARSRC1_0480: Odyssey Thera (OT) 8-hour HEK293T Protein-Complementation Assay for Androgen Receptor/SRC-1 Co-activator (AID 2283354);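 note: hits raise the complementation signal above DMSO so AC50 marks enhancers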
# Summary of the method: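 HEK293T cells stably expressing AR and SRC-1 fused to Venus YFP fragments, imaged 8 h after dosing. Complementation fluorescence scored as nuclear/cytoplasmic ratio at 488 nm in at least 400 cells per image; gain fitted versus DMSO.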
# [2] = target: rat CYP2C11, Cyp2c11 (gene 29277) (UniProt P08683); test: NVS_ADME_rCYP2C11: NovaScreen (NVS) CYP450-related Enzyme Activity (ADME) Assay for rat CYP2C11 (AID 2283118)
# Summary of the method: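 Cell-free recombinant rat enzyme with fluorescent substrate; readout 0.33 h after dosing, loss of signal versus acetonitrile control. Initial duplicate single-point at 10 uM; actives rerun in concentration series.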
# [3] = target: human Matrix Metalloproteinase-3 (MMP3), MMP3 (gene 4314) (UniProt P08254); test: NVS_ENZ_hMMP3: NovaScreen (NVS) Enzymatic Assay for human Matrix Metalloproteinase-3 (MMP3) (AID 2283185)
# Summary of the method: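 Cell-free recombinant human MMP3 activity, fluorescence intensity read 1 h after dosing. Primary screen duplicate at 25 uM, actives retested in concentration series; loss of signal vs DMSO baseline.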
# [4] = target: human Serotonin, 5-Hydroxytryptamine Receptor 7 (5HT7), HTR7 (gene 3363) (UniProt P34969); test: NVS_GPCR_h5HT7: NovaScreen (NVS) G Protein-Coupled Receptor Assay for human Serotonin, 5-Hydroxytryptamine Receptor 7 (5HT7) (AID 2283255);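 note: hits reduce specific radioligand binding relative to DMSO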
# Summary of the method: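 Radioligand displacement on membranes from CHO cells expressing human 5HT7, 1 h incubation, filter-based scintillation counting. Primary screen used a single 25 uM concentration in duplicate; actives were followed up in concentration series.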
# [5] = target: human Leukotriene B4 Receptor 1 (LTB4-BLT1), LTB4R (gene 1241) (UniProt Q15722); test: NVS_GPCR_hLTB4_BLT1: NovaScreen (NVS) G Protein-Coupled Receptor Assay for human Leukotriene B4 Receptor 1 (LTB4-BLT1) (AID 2283271)
# Summary of the method: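 Radioligand displacement binding on receptor extracted from human neutrophils, cell-free, 1 h after dosing; filter-based scintillation counting. Primary screen in duplicate at 25 uM, actives retested in concentration-response up to 50 uM; loss of signal versus DMSO.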
# [6] = target: Metabotropic glutamate receptor 1 (Rattus norvegicus) (UniProt P23385); test: NVS_GPCR_rmMGluR1: NovaScreen (NVS) G Protein-Coupled Receptor Assay for rat Glutamate Metabotropic Receptor 1 (MGluR1) (AID 2283305)
# Summary of the method: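 Rat cerebellum membrane preparation, radioligand displacement binding read by filter-based scintillation counting 1 hour after dosing. Initial duplicate single-point screen at 25 uM, then concentration-response up to 50 uM; loss of signal versus DMSO baseline scored.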
# [7] = test system: Thyroperoxidase (TPO), gene 445522; test: CCTE_Simmons_GUA_TPO: CCTE's Guaiacol Assay for Thyroperoxidase (TPO) Inhibition, Simmons Lab (AID 2283750)
# Summary of the method: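 Porcine thyroid microsomes (25 ug) in 200mM potassium phosphate, preincubated 30 s at 37C with compound (8 concentrations, 5 nM–87.5 uM) and 35mM guaiacol; 1mM H2O2 starts reaction. Absorbance change at 450nm over first 80 s; loss of signal versus DMSO, three replicates.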
# [8] = target: human Thyroid hormone Receptor beta (TRb), THRB (gene 7068) (UniProt P10828); test: ATG_hTRb_XSP2: Attagene TRANS-FACTORIAL Multi-Species (XSP2) HepG2 Assay for human Thyroid hormone Receptor beta (TRb) (AID 2283840);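 note: actives raise reporter mRNA so potency reflects agonist-like gain of signal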
# Summary of the method: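 Gain-of-signal reporter transcription, referenced to DMSO, was measured in transiently transfected HepG2 after 24 h exposure; labeled RT-PCR products were resolved by capillary electrophoresis. Assay medium included 3 nM 6-alpha-fluorotestosterone and 1.5 nM norgestrel.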
# [9] = test system: DIO2 (gene 1734); test: CCTE_GLTED_hDIO2: CCTE's human Deiodinase 2 (DIO2) Inhibition Assay, Great Lakes Toxicology and Ecology Division (GLTED) Lab (AID 2284050)
# Summary of the method: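 hDIO2 enzyme + test chem, 3 h → free iodide from substrate; step 2: Sandell-Kolthoff (Ce IV reduction by As, iodide-catalysed), spectrophotometric read. Triplicate plates; DMSO = baseline.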
# [10] = test system: DIO3 (gene 1735); test: CCTE_GLTED_hDIO3: CCTE's human Deiodinase 3 (DIO3) Inhibition Assay, Great Lakes Toxicology and Ecology Division (GLTED) Lab (AID 2284055);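 note: potency is for inhibition seen as loss of released iodide signal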
# Summary of the method: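 Absorbance from the Sandell-Kolthoff reaction reports iodide released by human DIO3 during a 3-hour incubation with chemical. Inhibition scored as signal loss against DMSO controls.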
# [11] = target: human Matrix Metalloproteinase-1 (MMP1), MMP1 (gene 4312) (UniProt P03956); test: NVS_ENZ_hMMP1: NovaScreen (NVS) Enzymatic Assay for human Matrix Metalloproteinase-1 (MMP1) (AID 2283181)
# Summary of the method: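 Human MMP1 enzyme activity measured by fluorescence 1 h after dosing, cell-free, with a specific substrate. Screened in duplicate at 25 uM; hits (e.g. 30% inhibition) run in concentration-response up to 50 uM; loss of signal versus DMSO.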
smiles,measurement,setting,value
COP(=O)(OC)OC,AC50,[1],inconclusive: 50 µM
O=C(O)C(F)(F)C(F)(F)C(F)(F)C(F)(F)C(F)(F)C(F)(F)C(F)(F)F,AC50,[2],inconclusive: 0.625 µM
same,AC50,[3],inconclusive: 0.129 µM
same,AC50,[4],inconclusive: 41.2 µM
same,AC50,[5],active: 35.2 µM
same,AC50,[6],inconclusive: 25 µM
same,AC50,[7],inconclusive: 451 µM
same,outcome,[8],inactive
same,AC50,[9],inconclusive: 0.00173 µM
same,AC50,[10],inconclusive: 42.3 µM
FC(F)(F)C(F)(F)C(F)(F)C(F)(F)C(F)(F)C(F)(F)CCI,outcome,[11],inactive

# As a working copy, part of the list above:
smiles,measurement,setting,value
O=C(O)C(F)(F)C(F)(F)C(F)(F)C(F)(F)C(F)(F)C(F)(F)C(F)(F)F,AC50,[4],inconclusive: 41.2 µM
same,AC50,[5],active: 35.2 µM
